These results are taken from PubChem BioAssay AID248 (DTP/NCI, 2004).

The list is a part of this screen's results and no random one: it gathers tests that were run many times, whatever their T/C, doses with no T/C, and many T/C values between a quarter and a half above the control. Further doses and runs are listed elsewhere. T/C gives the treated animals as a percentage of the vehicle group. Some doses have a count of surviving animals in place of a T/C: the source holds a T/C of zero for them, seemingly a mark for toxic or unscored doses. Some doses without a T/C left all or most animals alive at the check, yet need not have been tolerated: the source hardly ever lists a survival T/C far under the control, and the zero likely stands for such cases as well. Counts of survivors are from the toxicity check (mostly the fifth day) where no day follows; animals may have died later. Schedules are NCI's codes, read here as Q, the interval in days (D) or hours (H), X, the number of doses. Some schedules carry Z or #; the key to these is not given. Some entries were tested several times; the values are given in rising order. Where survival is the endpoint, the PubChem record calls one and a half times the control and up active, and a quarter to a half above the control has no call in these data; cut-offs in other NCI protocols can differ.

The test concerns L1210 leukemia ip in BDF1 mice, survival T/C. Nature of the test: NCI In Vivo Anticancer Drug Screen. Data for tumor model L1210 Leukemia (intraperitoneal) in B6D2F1 (BDF1) mice. The conditions noted are these: T/C endpoint: mean survival time, higher T/C = longer survival.
Setting [1] is: dose: 200.0 mg/kg/injection, schedule: Q04DX003 (ip), vehicle: saline with Tween-80.
Setting [2] is: dose: 400.0 mg/kg/injection, schedule: Q04DX003 (ip), vehicle: saline with Tween-80.
[3] abbreviates: dose: 400.0 mg/kg/injection, schedule: Q04DX002 (ip), vehicle: Klucel (hydroxypropylcellulose) (HPC).
Where [4] appears, read: dose: 200.0 mg/kg/injection, schedule: Q04DX003 (ip), vehicle: Klucel (hydroxypropylcellulose) (HPC).
Where [5] appears, read: dose: 400.0 mg/kg/injection, schedule: Q04DX003 (ip), vehicle: Klucel (hydroxypropylcellulose) (HPC).
Where [6] appears, read: dose: 200.0 mg/kg/injection, schedule: Q04DX003 (ip), vehicle: saline.
[7] abbreviates: dose: 400.0 mg/kg/injection, schedule: Q04DX003 (ip), vehicle: saline.
Where [8] appears, read: dose: 400.0 mg/kg/injection, schedule: Q04DX003 (ip), vehicle: other.
[9] abbreviates: dose: 75.0 mg/kg/injection, schedule: Q01DX001 (ip), vehicle: other.
The mark [10] stands for this setting: dose: 150.0 mg/kg/injection, schedule: Q01DX001 (ip), vehicle: other.
Where [11] appears, read: dose: 300.0 mg/kg/injection, schedule: Q01DX001 (ip), vehicle: other.

On to `CC(=O)Oc1cccc2ccc(/C=C/c3cccc[n+]3C)nc12`, for which the survivor count is, setting by setting: (dose: 64.0 mg/kg/injection, schedule: Q01DX015 (ip), vehicle: carboxymethylcellulose (CMC)) 0 of 6; (dose: 128.0 mg/kg/injection, schedule: Q01DX015 (ip), vehicle: carboxymethylcellulose (CMC)) 0 of 6.
As for `NC(Cc1cn(Cc2ccccc2)cn1)C(=O)O` (stereo not given), the survivor count is 0 of 3 (dose: 100.0 mg/kg/injection, schedule: Q04DX003 (ip), vehicle: saline with Tween-80); 0 of 3 under setting [1]; 0 of 3 under setting [2].
For `Nc1cc(/C=C/c2ccc(/C=C/c3ccc(S(=O)(=O)F)cc3)cc2)nc(N)n1`, the survivor count (dose: 200.0 mg/kg/injection, schedule: Q01DX001 (ip), vehicle: saline with Tween-80) is on record as 6 of 6.
Take `O=C(O)/C=C/c1ccc([N+](=O)[O-])s1`: the survivor count under setting [3] is reported as 0 of 3.
Regarding `CCSc1nc(N)c(C(N)=O)cc1C#N`, where the note is “dose: 400.0 mg/kg/injection, schedule: Q01DX009 (ip), vehicle: Klucel (hydroxypropylcellulose) (HPC)”, the survivor count was 5 of 6.
As for `Br/C=C/C1=CCCCC1`, the survivor count (dose: 400.0 mg/kg/injection, schedule: Q01DX009 (ip), vehicle: acetone) is reported as 0 of 6.
Take `Cc1cccc[n+]1CC(=O)c1ccc(-c2ccc(C(=O)C[n+]3ccccc3C)cc2)cc1`: the survivor count runs as follows: (dose: 12.5 mg/kg/injection, schedule: Q04DX003 (ip), vehicle: Klucel (hydroxypropylcellulose) (HPC)) 0 of 6; (dose: 25.0 mg/kg/injection, schedule: Q04DX003 (ip), vehicle: Klucel (hydroxypropylcellulose) (HPC)) 0 of 6; (dose: 50.0 mg/kg/injection, schedule: Q04DX003 (ip), vehicle: Klucel (hydroxypropylcellulose) (HPC)) 0 of 6; (dose: 100.0 mg/kg/injection, schedule: Q04DX003 (ip), vehicle: Klucel (hydroxypropylcellulose) (HPC)) 0 of 6; under setting [4], 0 of 6; under setting [5], 0 of 6.
For `O=S(=O)(N/N=C/c1cc(Cl)ccc1O)c1cc(Cl)c(Cl)cc1Cl`, the survivor count by setting is: (dose: 40.0 mg/kg/injection, schedule: Q01DX Z (ip), vehicle: other) 6 of 8; (dose: 80.0 mg/kg/injection, schedule: Q01DX Z (ip), vehicle: other) 0 of 8.
In the case of `CS(=O)(=O)NN`, the survivor count is, setting by setting: (dose: 100.0 mg/kg/injection, schedule: Q01DX009 (ip), vehicle: saline) 0 of 6; (dose: 200.0 mg/kg/injection, schedule: Q01DX001 (ip), vehicle: saline) 0 of 4 and 0 of 6; (dose: 400.0 mg/kg/injection, schedule: Q01DX001 (ip), vehicle: saline) 0 of 4.
On to `C[N+]1=C2CCCC2=C(N)CC1`, for which the survivor count by setting is: (dose: 100.0 mg/kg/injection, schedule: Q04DX003 (ip), vehicle: saline) 0 of 6; under setting [6], 0 of 6; under setting [7], 1 of 6.
For `CC[NH-].CC[NH-].[Br][Pt+2][Br]`, under setting [8], the survivor count was 5 of 6.
As to `CCOc1cc(C=Nc2cc(Br)c(O)c(Br)c2)ccc1N(CCCl)CCCl`, the survivor count (dose: 45.0 mg/kg/injection, schedule: Q01DX009 (ip), vehicle: carboxymethylcellulose (CMC)) is reported as 6 of 6. Further, for the setting “dose: 66.0 mg/kg/injection, schedule: Q01DX001 (ip), vehicle: carboxymethylcellulose (CMC)”, the T/C was 132 % of control.
On to `CC(C)(C)OOC(=O)c1ccccc1O`, for which the survivor count reads like this: (dose: 200.0 mg/kg/injection, schedule: Q01DX009 (ip), vehicle: saline sonified) 5 of 6; (dose: 400.0 mg/kg/injection, schedule: Q01DX009 (ip), vehicle: saline sonified) 0 of 6.
For `O=C(O)CSc1cc(Cl)ccc1Cl`, the survivor count under setting [3] was 0 of 3.
Take `CCCCCCP(=O)(CCCCCC)CCCCCC`: the survivor count is 4 of 6 (dose: 125.0 mg/kg/injection, schedule: Q01DX Z (ip), vehicle: methylcellulose (MC)) and 1 of 6 (dose: 150.0 mg/kg/injection, schedule: Q01DX Z (ip), vehicle: methylcellulose (MC)).
On to `CC[C@@]1(O)C[C@H](OC2CC(N(C)C)C(O)C(C)O2)c2c(O)c3c(c(O)c2[C@H]1OC1CC(N(C)C)C(O)C(C)O1)C(=O)c1cccc(O)c1C3=O` (stereo not given in full), for which the survivor count (dose: 1.0 mg/kg/injection, schedule: Q01DX009 (ip), vehicle: saline) was 6 of 6; the survivor count (dose: 2.0 mg/kg/injection, schedule: Q01DX009 (ip), vehicle: saline) was 4 of 6; the survivor count (dose: 4.0 mg/kg/injection, schedule: Q01DX009 (ip), vehicle: saline) was 1 of 6.
Consider `CC1(c2ccc(Cl)cc2)NC(=O)N(CC(N)=O)C1=O` (stereo not given), for which the survivor count under setting [1] is 3 of 6.
For `NC(=O)c1[nH]cnc1/N=N/N(CCF)CCF`, the T/C was 148 % of control (dose: 7.5 mg/kg/injection, schedule: Q01DX009 (ip), vehicle: other) and 127 % of control (dose: 20.0 mg/kg/injection, schedule: Q01DX001 (ip), vehicle: other). Besides, the survivor count is recorded as 3 of 5 (dose: 40.0 mg/kg/injection, schedule: Q01DX001 (ip), vehicle: other); 0 of 6 under setting [9]; 0 of 6 under setting [10]; 0 of 6 under setting [11].
As for `O=C(C=C(C(F)(F)F)C(F)(F)F)/C=C/c1ccccc1`, the survivor count is, setting by setting: (dose: 6.25 mg/kg/injection, schedule: Q01DX009 (ip), vehicle: other) 3 of 6; (dose: 12.5 mg/kg/injection, schedule: Q01DX009 (ip), vehicle: other) 1 of 6; (dose: 25.0 mg/kg/injection, schedule: Q04DX003 (ip), vehicle: other) 4 of 6; (dose: 50.0 mg/kg/injection, schedule: Q04DX003 (ip), vehicle: other) 3 of 6; (dose: 100.0 mg/kg/injection, schedule: Q04DX003 (ip), vehicle: other) 6 of 6; (dose: 200.0 mg/kg/injection, schedule: Q04DX003 (ip), vehicle: other) 5 of 6. Besides, the survivor count under setting [8] is given as 0 of 6.
For the compound `OC(CC(O)(c1ccccc1)c1ccccc1)(c1ccccc1)c1ccccc1`, the survivor count under setting [9] is 3 of 6, the survivor count under setting [10] is recorded as 0 of 6 and the survivor count under setting [11] is listed as 0 of 6.
Take `CCC1N=C(N)N=C(N)N1c1ccc(Cl)cc1` (stereo not given): the survivor count is 0 of 3 (dose: 75.0 mg/kg/injection, schedule: Q04DX002 (ip), vehicle: saline with Tween-80); 0 of 3 (dose: 150.0 mg/kg/injection, schedule: Q04DX002 (ip), vehicle: saline with Tween-80); 0 of 6 (dose: 300.0 mg/kg/injection, schedule: Q01DX001 (ip), vehicle: saline); 0 of 3 (dose: 300.0 mg/kg/injection, schedule: Q04DX002 (ip), vehicle: saline with Tween-80).
Turning to `CCOC(=O)c1cc([N+](=O)[O-])cc2c1-c1c(cc([N+](=O)[O-])cc1[N+](=O)[O-])C2=O`, the survivor count is on record as 2 of 6 under setting [4] and 1 of 6 under setting [5].
On to `O=[N+]([O-])c1ccc(Oc2cc(Cl)c(Cl)cc2Cl)c([N+](=O)[O-])c1`, for which the survivor count reads like this: (dose: 100.0 mg/kg/injection, schedule: Q01DX001 (ip), vehicle: other) 6 of 6; (dose: 200.0 mg/kg/injection, schedule: Q01DX001 (ip), vehicle: other) 6 of 6.
As for `CCCCCCCCCC(=O)N(CCC)CCC`, under setting [2], the survivor count is 3 of 3.
Regarding `CCN(CC)CCSC(CO)c1ccccc1` (stereo not given), under “dose: 300.0 mg/kg/injection, schedule: Q04DX003 (ip), vehicle: Klucel (hydroxypropylcellulose) (HPC)”, the survivor count is 2 of 6.
Turning to `CCCCCCCCCCCCNC(=O)C[n+]1cccc(C(N)=O)c1`, the survivor count by setting is: under setting [6], 3 of 6; under setting [7], 0 of 6.
The matching figures for `CCCNCCCCCCNCCC`: 6 of 6 and 6 of 6.
